This note sets out measurements from patent US9610363B2, “Methods for inhibiting starvation of a cell” (PRESIDENT AND FELLOWS OF HARVARD COLLEGE, priority 2009, dated 2017).

A short description of the data set: Blood glucose levels during treatment. The format is in vivo. As to conditions: systemic administration, PDE-β−/− mice.

In the case of insulin, the blood glucose levels entry is given as “increase in blood glucose levels”.
For `CN(N=O)C(=O)N[C@H]1C(O)O[C@H](CO)[C@@H](O)[C@@H]1O` (mixture of isomers) [streptozotocin] the value was “increased blood glucose levels”.
